Measurements reported in PubChem BioAssay AID504791 (Drosophila RNAi Screening Center, 2011)

- Test: 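Factors in Argonaute-based small RNA production and activity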 (primary screen)
- Cells: Drosophila S2-derived reporter cells
- Reagent: long dsRNA against Drosophila genes, about 150-250 ng dsRNA per well (siRNA assay); about 80-120 ng (miRNA assay)
- Time to read-out: about 5 days (siRNA assay); about 4 days (miRNA assay)
- Conditions: copper sulfate induction of reporters: 25 µM (siRNA assay); 200 mM stated (miRNA assay), 1-2 days before reading
- Read-out: 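Dual luciferase assay: Renilla to firefly signal ratio in each well, scaled to the mean ratio of its plate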
- Units: stable assay Renilla, run 1 in luminescence; stable assay firefly, run 1 in luminescence
- Active means: 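First-pass picks had plate-scaled ratios over 1.5 for the siRNA assay, over 1.6 for the miRNA assay, or under 0.6; two distinct dsRNAs had to score alike on retest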
The deposit covers about 23,000 reagents; below is an unselected part of those with a known target gene and a result. Of all reagents, 199 (0.86%) are marked active. 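Plate-scaled ratios behind the calls are not deposited; printed light signals are raw; many rows marked increased or decreased are still called inactive.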 Not given: the direction of the score.

{"gene knocked down":"ppk11","DRSC id":"DRSC02737","stable assay Renilla, run 1":7231,"stable assay firefly, run 1":3.22e5,"outcome":"inactive"}
{"gene knocked down":"CG9747","DRSC id":"DRSC16554","stable assay Renilla, run 1":3611,"stable assay firefly, run 1":2.89e5,"outcome":"inactive"}
{"gene knocked down":"CG4270","DRSC id":"DRSC00648","stable assay Renilla, run 1":8136,"stable assay firefly, run 1":4.44e5,"outcome":"inactive"}
{"gene knocked down":"PGRP-LF","DRSC id":"DRSC28930","miRNA reporter change":"reporter ratio lowered past the hit cutoff","outcome":"inactive"}
{"gene knocked down":"Cyp313a3","DRSC id":"DRSC16626","stable assay Renilla, run 1":6038,"stable assay firefly, run 1":3.54e5,"outcome":"inactive"}
{"gene knocked down":"Arl6","DRSC id":"DRSC07031","stable assay Renilla, run 1":6472,"stable assay firefly, run 1":3.63e5,"outcome":"inactive"}
{"gene knocked down":"CG13385","DRSC id":"DRSC02259","stable assay Renilla, run 1":6662,"stable assay firefly, run 1":3.29e5,"outcome":"inactive"}
{"gene knocked down":"CNPYb","DRSC id":"DRSC09845","stable assay Renilla, run 1":7966,"stable assay firefly, run 1":2.72e5,"outcome":"inactive"}
{"gene knocked down":"HLH4C","DRSC id":"DRSC18670","stable assay Renilla, run 1":4595,"stable assay firefly, run 1":2.99e5,"outcome":"inactive"}
{"gene knocked down":"HLH4C","DRSC id":"DRSC21322","stable assay Renilla, run 1":9195,"stable assay firefly, run 1":6.64e5,"outcome":"inactive"}
{"gene knocked down":"Paip2","DRSC id":"DRSC14504","stable assay Renilla, run 1":9273,"stable assay firefly, run 1":6.02e5,"outcome":"inactive"}
{"gene knocked down":"Sgs4","DRSC id":"DRSC18715","stable assay Renilla, run 1":5912,"stable assay firefly, run 1":3.39e5,"outcome":"inactive"}
